Measured values: PubChem BioAssay AID1487 (National Center for Advancing Translational Sciences (NCATS), 2009)
The list shows a part of the results. Shown are side measurements of this screen, not its main read-out; they come without a call. Most of these compounds were active or inconclusive in the main read-out, so they are no random draw. The note in brackets gives the kind of curve behind each potency; many fits are weak.

Assay: qHTS Assay for Modulators of Lamin A Splicing
Conditions: HeLa LMNA splicing GFP/RFP minigene ratio, 48 h
In short: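 Read-out is the ratio of GFP to DsRed2 object intensity, acquired by 488 nm laser-scanning cytometry on HeLa lamin A-EGFP minigene reporter cells. Compound incubation 48 hrs at 37 °C in Opti-MEM with 2% FBS; DMSO 0.5% final.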

[1] = measured here: GFP splicing reporter channel
[2] = measured here: RFP viability control channel

| Compound | AC50 [1] | AC50 [2] |
| --- | --- | --- |
| CCCCC(NS(=O)(=O)c1ccc(OC)cc1)C(=O)O (centres undefined) | 35.5 µM [rising, single point] | – |
| Cn1ccc2cc(S(=O)(=O)N3CCCC(C(=O)NCc4ccccc4F)C3)ccc21 (centres undefined) | 14.1 µM [falling, partial curve] | – |
| CC1CN(CCCCOc2ccc(F)cc2)CC(C)O1 (centres undefined) | 0.0398 µM [rising, partial curve, poor fit] | – |
| COc1cccc(CN2CCN(c3nc4nonc4nc3NC3CC3)CC2)c1 | 0.0126 µM [falling, full curve, poor fit] | – |
| COc1ccc(CN(C)CC(=O)Nc2ccccc2-c2ccccc2)c(OC)c1 | 14.1 µM [rising, partial curve] | 14.1 µM [rising, single point] |
| Cc1nnc(NC(=O)c2ccc(S(=O)(=O)N3CCCCCC3)cc2)o1 | 10 µM [falling, partial curve, poor fit] | – |
| COc1cccc(C(=O)COc2ccc3c(C)c(Cc4ccccc4)c(=O)oc3c2)c1 | – | 35.5 µM [rising, single point] |
| Cc1ccc(F)cc1NC(=O)CCOc1ccccc1 | – | 20 µM [rising, single point] |
| Cn1c(=O)c2c(nc(NCc3ccco3)n2CCc2ccccc2)n(C)c1=O | – | 12.6 µM [rising, partial curve] |
| COc1cc(C(=O)N/N=C(\C)c2ccc3c(c2)OCO3)cc(OC)c1OC | – | 3.55 µM [falling, single point] |
| COCCNc1ncncc1-c1ccccc1OC | – | 17.8 µM [falling, partial curve] |
| CC(CCc1ccccc1)NC(=O)C1CCN(c2nnc(-n3cccc3)s2)CC1 (centres undefined) | – | 12.6 µM [rising, partial curve] |
| CN(Cc1ccccc1)c1ncnc2ccc(Br)cc12 | 15.8 µM [rising, single point] | 35.5 µM [rising, single point] |
| O=C(CN1C(=O)C2CC=CCC2C1=O)Nc1nc2ccc(F)cc2s1 (centres undefined) | 0.355 µM [rising, partial curve] | – |
| COc1ccccc1NC(=O)c1cc(Sc2nncn2C)nc2ccccc12 | – | 3.98 µM [rising, partial curve, poor fit] |
| COc1cc(OC)c2c(c1)S(=O)(=O)C(c1ccccc1)=C2N | – | 0.0224 µM [falling, full curve, poor fit] |

| Compound | AC50 [1] | AC50 [2] |
| --- | --- | --- |
| Nc1ccc2nc(-c3ccc(N)c(Cl)c3)[nH]c2c1 | – | 5.01 µM [rising, partial curve] |
| O=C(NCc1cccs1)c1cc(-c2ccncc2)nc2ccc(Br)cc12 | 35.5 µM [rising, single point] | – |
| CCOc1cc(S(=O)(=O)Nc2ccc(CC)cc2)ccc1Cl | – | 12.6 µM [rising, partial curve] |
| CC(=O)N1CCCc2cc(S(=O)(=O)Nc3ccc(OC(F)(F)F)cc3)ccc21 | 0.794 µM [rising, single point] | 0.501 µM [rising, full curve, poor fit] |
| Cn1c(=O)[nH]c2cc(Cl)cnc21 | 35.5 µM [falling, single point] | 35.5 µM [falling, single point] |
| Cc1cc([N+](=O)[O-])nn1CC(=O)Nc1ccc(Cc2ccncc2)cc1 | – | 31.6 µM [rising, single point] |
| CCc1ccc2c(Cl)c(C(=O)N/N=C/c3c[nH]c4ccccc34)sc2c1 | 14.1 µM [falling, single point] | 20 µM [falling, single point] |
| COc1ccc(-c2cc(C(F)F)n3ncc(C(=O)N4CCc5ccccc54)c3n2)cc1 | 0.282 µM [falling, full curve] | 0.316 µM [falling, full curve] |
| COc1cc(/C=N/NC(=O)c2c(C)nnn2-c2nonc2N)ccc1O | – | 3.55 µM [rising, full curve] |
| O=C(c1cc(-c2ccccc2)nc2ccccc12)N1CCc2ccccc2C1 | 25.1 µM [falling, single point] | – |
| CCCc1cc(=O)n2[nH]c(-c3ccc(Br)cc3)cc2n1 | – | 35.5 µM [rising, single point] |
| COc1ccc(N(C(=O)CCl)C(C(=O)NCCc2ccccc2)c2cccs2)cc1 (centres undefined) | 35.5 µM [falling, single point] | 35.5 µM [falling, single point] |
| CCc1nnc(NS(=O)(=O)c2ccc(NC(=S)NC(=O)c3cccnc3)cc2)s1 | 0.891 µM [falling, full curve, poor fit] | – |
| CC(C)(C)C1CCC(OCC(O)CN2CCN(Cc3ccccc3)CC2)CC1 (centres undefined) | – | 12.6 µM [rising, partial curve] |
| Cc1ccc(Nc2nc(CSc3nnc(-c4ccccc4)n3C)cs2)cc1 | 14.1 µM [rising, partial curve] | 17.8 µM [rising, partial curve] |

Molecules listed so far containing a thiophene ring, fused or not (3):

| Compound | AC50 [1] | AC50 [2] |
| --- | --- | --- |
| O=C(NCc1cccs1)c1cc(-c2ccncc2)nc2ccc(Br)cc12 | 35.5 µM [rising, single point] | – |
| CCc1ccc2c(Cl)c(C(=O)N/N=C/c3c[nH]c4ccccc34)sc2c1 | 14.1 µM [falling, single point] | 20 µM [falling, single point] |
| COc1ccc(N(C(=O)CCl)C(C(=O)NCCc2ccccc2)c2cccs2)cc1 (centres undefined) | 35.5 µM [falling, single point] | 35.5 µM [falling, single point] |
